{
  "source": "patent US20160177395A1",
  "about": "“BIOMARKERS FOR THE PREDICTION OF RENAL INJURY” (priority 2007, published 2016)",
  "test_system": "rat kidney samples",
  "experiment": "Random-Forest classifiers applied to un-labeled samples of T1, T2, T3 and control (Table 30)",
  "details": "for Average 'Toxic' (%): average of the two classifiers",
  "method": "To validate the optimal signature for classification of renal toxicity of a compound after five days of application a test of the signatory polynucleotide/gene expression in rat kidney samples consisting of tissues from rats exposed to three drug compounds and a single control group was carried out (Teva Pharmaceutical Industries, IL).\nThe two optimal classifiers (signatures described in Tables 26 and 27) were applied to the qRT-PCR reads of the un-labeled samples and their calls was used to assign a level of toxicity to each group and, eventually, each compound.\nThe classifiers described in Tables 26 and 27, were used for testing the un-labeled samples. Both classifiers were applied to the measurements of each sample, used the 30% bound from above, and the number of samples pass that bound in each group were summarized.",
  "data": [
    {"smiles": "Nc1nc2ccc(OC(F)(F)F)cc2s1", "note": "[T3, 6-(trifluoromethoxy)benzothiazol-2-amine]", "values": [
      {"measurement": "Average 'Toxic' (%)", "setting": "Ds1 Day1 Female", "value": 0.2, "unit": "%"},
      {"measurement": "Average 'Toxic' (%)", "setting": "Ds1 Day1 Male", "value": 0, "unit": "%"},
      {"measurement": "Average 'Toxic' (%)", "setting": "Ds1 Day5 Female", "value": 0.085, "unit": "%"},
      {"measurement": "Average 'Toxic' (%)", "setting": "Ds1 Day5 Male", "value": 0.5, "unit": "%"},
      {"measurement": "Average 'Toxic' (%)", "setting": "Ds2 Day1 Female", "value": 0.2, "unit": "%"},
      {"measurement": "Average 'Toxic' (%)", "setting": "Ds2 Day1 Male", "value": 0.3, "unit": "%"},
      {"measurement": "Average 'Toxic' (%)", "setting": "Ds2 Day5 Female", "value": 0.2, "unit": "%"},
      {"measurement": "Average 'Toxic' (%)", "setting": "Ds2 Day5 Male", "value": 0.375, "unit": "%"},
      {"measurement": "Toxicity conclusion from classifier calls", "setting": "signatures of Tables 26 and 27, 30% bound", "value": "either real false-positive of the classifier, or a result of some technical problem"}
    ]}
  ]
}
